Earlier results as cited in patent publication US4944949A, “Pharmaceutical delivery systems” (priority 1986, dated 1990).

Experiments:
[1] = system: plasma proteins
[2] = in vivo

COc1ccc2cc([C@H](C)C(=O)O)ccc2c1 [Naproxen]
bound to plasma proteins [1]: more than 99% | absorption [2]: readily absorbed
